We go through three molecules from PMC12270911.

Results are given in words; binding and its absence hold for the method and conditions named. Binding seen in cells or lysates may run through a third protein. A yes stands for co-enrichment or nearness to the bait. Other partners may have been found.

The chains are these.
B1: CLSY3, endogenous (protein, UniProt F4I8S3 1-1410)
chain: MECIGKRVKSRSWQRLQAVNKRKKMETVAPVTSPPKKRRQKKPKNYDSDIEDITPTCNDSVPPPQVSNMYSVPNNSVKESFSRIMRDLNVEKKSGPSSSRLTDGSEQNPCLKERSFRVSDLGVEKKCSPEITDLDVGIPVPRFSKLKDVSEQKNTCLMQKSSPEIADLDLVISVPSSSVLKDVSEEIRFLKDKCSPEIRGLVLEKSVPGEIEILSDSESETEARRRASAKKKLFEESSRIVESISDGEDSSSETDEEEEENQDSEDNNTKDNVTVESLSSEDPSSSSSSSSSSSSSSSSSSSDDESYVKEVVGDNRDDDDLRKASSPIKRVSLVERKALVRYKRSGSSLTKPRERDNKIQKLNHREEEKKERQREVVRVVTKQPSNVVYTCAHCGKENTGNPESHSSFIRPHSIRDEIEDVNNFASTNVSKYEDSVSINSGKTTGAPSRPEVENPETGKELNTPEKPSISRPEIFTTEKAIDVQVPEEPSRPEIYSSEKAKEVQAPEMPSRPEVFSSEKAKEIQVPEMPSIPEIQNSEKAKEVQANNRMGLTTPAVAEGLNKSVVTNEHIEDDSDSSISSGDGYESDPTLKDKEVKINNHSDWRILNGNNKEVDLFRLLVNSVWEKGQLGEEDEADELVSSAEDQSQEQAREDHRKYDDAGLLIIRPPPLIEKFGVEEPQSPPVVSEIDSEEDRLWEELAFFTKSNDIGGNELFSNVEKNISANETPAAQCKKGKHDLCIDLEVGLKCMHCGFVEREIRSMDVSEWGEKTTRERRKFDRFEEEEGSSFIGKLGFDAPNNSLNEGCVSSEGTVWDKIPGVKSQMYPHQQEGFEFIWKNLAGTIMLNELKDFENSDETGGCIMSHAPGTGKTRLTIIFLQAYLQCFPDCKPVIIAPASLLLTWAEEFKKWNISIPFHNLSSLDFTGKENSAALGLLMQKNATARSNNEIRMVKIYSWIKSKSILGISYNLYEKLAGVKDEDKKTKMVREVKPDKELDDIREILMGRPGLLVLDEAHTPRNQRSCIWKTLSKVETQKRILLSGTPFQNNFLELCNVLGLARPKYLERLTSTLKKSGMTVTKRGKKNLGNEINNRGIEELKAVMLPFVHVHKGSILQSSLPGLRECVVVLNPPELQRRVLESIEVTHNRKTKNVFETEHKLSLVSVHPSLVSRCKISEKERLSIDEALLAQLKKVRLDPNQSVKTRFLMEFVELCEVIKEKVLVFSQYIDPLKLIMKHLVSRFKWNPGEEVLYMHGKLEQKQRQTLINEFNDPKSKAKVFLASTKACSEGISLVGASRVILLDVVWNPAVERQAISRAYRIGQKRIVYTYHLVAKGTPEGPKYCKQAQKDRISELVFACSSRHDKGKEKIAEAVTEDKVLDTMVEHSKLGDMFDNLIVQPKEADLVEGFSILMP
B2: RDM4 (protein, UniProt Q8GYP3 1-346)
chain: MDGVGESSTQNEVEEKPVIVRVKRKVGQSLLDAFWLEINERPLKRPTLDFSKLSISDSGERGPSVAEDVKPKKVLVRHLETVTDSETTADIIHSFFESDHNEKSCSKGKFEERKIAFKKDNRKEQRLTKSVQKQQIASENARFEQIWRSRKGNKEGIHEKCHFFDVIRVDTEERRDNAQEFTSLEDQKMLASFLPLLRECIPTAAEEIEADIQSSHTEEYVYDYYAVNEEMDISEDSSKNQFPLVIVEDEEEFCDGSDESDYDSEDSNAEDHPKTDYPEEEEEEEEEDDDDDDDDESEEEKSEASDESDDEETSKRHVRSVLGDDEFDDYAEDVYGYSESDEEFES
B3: REM12 (protein, UniProt P0CAP4 1-446)
chain: MVLNSSDLGPSRCDIRDLPAPSSTNDQGKTELARKKKVKRSNTEIEADASSSDNSCFVALVTASNLRKDALYLPQDLTSSVGLERKYREIVVTDERERRSWALDLRFNKSSDTFYISRGWRSFCDENGKKPGGVFVFKLVGNRETPVLSFCSTESINDGTQGHKNNKYNCMELKSKKKRMRCRDSTSPSQNRFMTLTLTHDNLIKSRRYLPLSFTRDNGLDKPGMIFLLGKTGRKWEANLLREASGRIVLTGKGWKEFAMANGLKSGELFTLEAILEKGTPMLSLVNTQSTNYRSQQGECSRDSEKESSICAEPSRGNKKWKATNNRKERRDSSSAIQNRYVTLTLTPEDVRACTLILPSQFMKANGINKLGKKTLLGQNRKKWFAYLLSKSGFVALGSGWKGFCEANGVKTGESFNLEYIDEQDTTPVFKFCSNSVEYVKFTSLP

This experiment addresses VDD-3FLAG (Arabidopsis (Col-0)). The experiment can be described thus: affinity purification with mass spectrometry; around 10 g floral tissue of FLAG-tagged transgenic plants, Col-0 as control; IP buffer 50 mM Tris-HCl pH 8.0, 150 mM NaCl, 5 mM EDTA, 10% glycerol, 0.1% Tergitol; anti-FLAG M2 magnetic beads, 4 °C 2 h; eluted with 3×FLAG peptide; LFQ by MaxQuant.
In the case of B1, the binding result was “binds”.
For B2, the binding result is listed as “binds”.
The result for B3 reads “binds”.
